Results are given in words; binding and its absence hold for the method and conditions named. Binding can be weak; no strength is given.

The experiment deals with human fibronectin (human). The experiment in a line: affinity chromatography with MALDI-TOF MS; synthesized peptides mixed 1:1 by mass (GIA: peptides 1 and 2; GPP: peptides 3 and 4), loaded on a micro FN-affinity column (100 μL), washed until the wash held no sample, eluate read by MALDI-TOF MS; both purified.

B1: synthesized peptide 3, … (peptide)
peptide: GPPGPMGPPGLAGPPGESGR
As to B1, the binding entry is “binds”.

B2: synthesized peptide 1, … (peptide)
peptide: GAPGADGPAGAPGTPGPQGIAGQR
Regarding B2, the binding entry was “binds”.

Source of the values: PMC9506415.
